The source of these data is article PMC5871718 (Cell, 2018).

Sequences of proteins named here, by UniProt entry; tags and fusion partners are left off. Residues count along the entry.
UniProt Q4ZG55: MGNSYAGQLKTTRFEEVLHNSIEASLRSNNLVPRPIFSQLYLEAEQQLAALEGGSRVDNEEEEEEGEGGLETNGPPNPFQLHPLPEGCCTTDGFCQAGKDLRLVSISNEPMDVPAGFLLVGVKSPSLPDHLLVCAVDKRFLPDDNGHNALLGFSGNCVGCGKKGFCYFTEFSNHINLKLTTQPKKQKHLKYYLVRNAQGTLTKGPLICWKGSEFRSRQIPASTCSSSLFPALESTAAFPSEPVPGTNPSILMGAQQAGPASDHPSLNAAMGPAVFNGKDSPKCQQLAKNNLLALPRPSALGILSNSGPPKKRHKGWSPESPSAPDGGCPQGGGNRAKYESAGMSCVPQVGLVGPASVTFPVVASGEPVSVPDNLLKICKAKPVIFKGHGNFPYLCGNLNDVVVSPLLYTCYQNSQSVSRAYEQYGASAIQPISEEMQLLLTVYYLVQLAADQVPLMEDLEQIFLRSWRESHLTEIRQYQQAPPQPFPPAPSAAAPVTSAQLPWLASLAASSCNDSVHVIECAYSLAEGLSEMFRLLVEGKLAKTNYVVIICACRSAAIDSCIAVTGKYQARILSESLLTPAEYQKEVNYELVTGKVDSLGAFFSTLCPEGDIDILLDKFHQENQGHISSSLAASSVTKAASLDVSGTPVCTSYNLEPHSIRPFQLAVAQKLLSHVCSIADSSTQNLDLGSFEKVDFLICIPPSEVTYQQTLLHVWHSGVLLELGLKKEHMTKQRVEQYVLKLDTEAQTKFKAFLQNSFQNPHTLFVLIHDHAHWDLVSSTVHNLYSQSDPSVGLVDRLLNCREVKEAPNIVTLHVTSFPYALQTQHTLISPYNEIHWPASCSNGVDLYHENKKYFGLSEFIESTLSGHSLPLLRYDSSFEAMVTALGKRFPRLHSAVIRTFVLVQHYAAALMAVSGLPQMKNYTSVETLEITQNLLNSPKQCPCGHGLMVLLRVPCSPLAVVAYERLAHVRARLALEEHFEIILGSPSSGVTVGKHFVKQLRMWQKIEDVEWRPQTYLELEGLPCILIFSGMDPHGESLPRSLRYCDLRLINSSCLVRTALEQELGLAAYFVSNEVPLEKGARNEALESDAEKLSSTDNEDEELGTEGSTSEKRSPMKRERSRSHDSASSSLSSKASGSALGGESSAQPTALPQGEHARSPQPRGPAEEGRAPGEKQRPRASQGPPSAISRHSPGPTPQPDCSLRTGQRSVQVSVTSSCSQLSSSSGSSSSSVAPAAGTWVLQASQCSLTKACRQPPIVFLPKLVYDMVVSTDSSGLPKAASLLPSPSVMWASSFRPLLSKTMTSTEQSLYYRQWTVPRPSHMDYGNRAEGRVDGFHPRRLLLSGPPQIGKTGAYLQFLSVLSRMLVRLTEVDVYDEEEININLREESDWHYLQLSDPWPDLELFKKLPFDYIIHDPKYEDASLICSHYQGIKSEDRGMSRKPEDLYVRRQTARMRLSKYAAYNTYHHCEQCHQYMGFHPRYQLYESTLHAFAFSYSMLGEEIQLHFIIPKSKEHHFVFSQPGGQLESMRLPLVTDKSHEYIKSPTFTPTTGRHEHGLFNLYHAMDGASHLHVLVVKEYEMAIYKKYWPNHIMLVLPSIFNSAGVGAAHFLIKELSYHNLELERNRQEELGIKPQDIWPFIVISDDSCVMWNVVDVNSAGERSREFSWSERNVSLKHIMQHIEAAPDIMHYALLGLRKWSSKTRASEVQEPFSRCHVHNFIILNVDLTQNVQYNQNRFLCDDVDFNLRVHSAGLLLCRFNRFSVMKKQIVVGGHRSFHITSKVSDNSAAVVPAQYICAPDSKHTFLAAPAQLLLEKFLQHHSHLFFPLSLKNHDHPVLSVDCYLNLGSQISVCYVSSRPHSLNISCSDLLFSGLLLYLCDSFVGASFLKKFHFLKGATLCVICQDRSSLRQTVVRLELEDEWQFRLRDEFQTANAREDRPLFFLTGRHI
UniProt P08238: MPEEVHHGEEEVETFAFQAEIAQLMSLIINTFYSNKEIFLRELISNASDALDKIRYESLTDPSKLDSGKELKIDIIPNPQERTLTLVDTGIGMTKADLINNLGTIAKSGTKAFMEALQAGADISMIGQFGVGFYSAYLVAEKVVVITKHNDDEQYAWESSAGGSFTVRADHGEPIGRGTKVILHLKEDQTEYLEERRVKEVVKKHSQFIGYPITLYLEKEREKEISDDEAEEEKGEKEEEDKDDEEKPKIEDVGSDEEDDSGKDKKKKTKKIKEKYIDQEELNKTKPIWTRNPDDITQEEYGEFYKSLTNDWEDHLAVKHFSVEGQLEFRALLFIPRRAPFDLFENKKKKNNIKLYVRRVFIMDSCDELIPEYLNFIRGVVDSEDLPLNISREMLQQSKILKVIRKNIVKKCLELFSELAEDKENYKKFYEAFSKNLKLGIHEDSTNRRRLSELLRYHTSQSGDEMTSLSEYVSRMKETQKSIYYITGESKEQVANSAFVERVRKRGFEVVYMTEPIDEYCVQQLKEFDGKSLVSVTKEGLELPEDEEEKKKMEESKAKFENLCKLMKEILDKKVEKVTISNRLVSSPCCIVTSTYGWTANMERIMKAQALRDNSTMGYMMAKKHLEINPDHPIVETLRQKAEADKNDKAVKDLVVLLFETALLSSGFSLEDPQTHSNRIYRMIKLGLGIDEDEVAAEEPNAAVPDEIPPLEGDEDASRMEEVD
UniProt P14625, residues 22-803: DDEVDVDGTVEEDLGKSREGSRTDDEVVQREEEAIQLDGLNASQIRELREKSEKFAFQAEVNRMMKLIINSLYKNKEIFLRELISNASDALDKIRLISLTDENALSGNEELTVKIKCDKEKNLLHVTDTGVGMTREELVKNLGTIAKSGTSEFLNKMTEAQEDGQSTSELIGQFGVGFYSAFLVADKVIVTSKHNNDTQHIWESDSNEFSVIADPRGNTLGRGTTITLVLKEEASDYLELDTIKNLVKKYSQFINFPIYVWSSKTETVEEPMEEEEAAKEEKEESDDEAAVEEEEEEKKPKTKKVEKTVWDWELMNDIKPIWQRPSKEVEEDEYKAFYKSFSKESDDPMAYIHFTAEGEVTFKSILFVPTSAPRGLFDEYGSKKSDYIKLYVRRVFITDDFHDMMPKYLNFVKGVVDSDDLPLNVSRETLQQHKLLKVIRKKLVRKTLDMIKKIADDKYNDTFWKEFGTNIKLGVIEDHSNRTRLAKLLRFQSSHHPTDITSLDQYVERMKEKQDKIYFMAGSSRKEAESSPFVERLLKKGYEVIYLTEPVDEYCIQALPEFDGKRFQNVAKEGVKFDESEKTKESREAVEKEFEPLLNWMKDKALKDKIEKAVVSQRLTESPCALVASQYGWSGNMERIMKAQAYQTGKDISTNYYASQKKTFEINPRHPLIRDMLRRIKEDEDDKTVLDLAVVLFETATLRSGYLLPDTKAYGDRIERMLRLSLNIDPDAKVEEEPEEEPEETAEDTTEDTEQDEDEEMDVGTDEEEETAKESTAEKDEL

No constants are given. Whether binding was seen depends on the method and setting. Binding seen in cells or lysates may run through a third protein. Here binding means that the protein was enriched with, or labelled near, the bait; the list need not be complete.

The target of the assay is GREB1 (human (endogenous in MCF-7)) (UniProt Q4ZG55). Briefly: affinity purification with mass spectrometry; co-immunoprecipitation of endogenous GREB1 from MCF-7 cell extract (1 mg protein; 50 mM Tris-HCl pH 7.5, 150 mM NaCl, 0.8% IGEPAL CA-630) with 10 ug anti-GREB1 or rabbit IgG control, Protein G beads, 4°C; extract pre-incubated 1 h with vehicle (DMSO) or 10 uM 17-AAG; read-out LC-MS/MS, fold change relative to isotype IgG control.
As to HSP90AA1 (from UniProt P07900 1-732), the binding entry is on record as “binds”. In the case of HSP90AB1 (from UniProt P08238 1-724), the binding result is “binds”. Take HSP90B1 (from UniProt P14625 22-803): the binding result is on record as “binds”.
